The values below come from the supplement of paper PMC11732987, “Enantioselective OTUD7B fragment discovery through chemoproteomics screening and high-throughput optimisation” (Communications Chemistry, 2025).

Protein sequences, listed by entry. Tags and fused reporters are not part of them. Lines headed by an entry give the natural chain unless they say otherwise; changes in a name come on top.
UniProt Q96B77: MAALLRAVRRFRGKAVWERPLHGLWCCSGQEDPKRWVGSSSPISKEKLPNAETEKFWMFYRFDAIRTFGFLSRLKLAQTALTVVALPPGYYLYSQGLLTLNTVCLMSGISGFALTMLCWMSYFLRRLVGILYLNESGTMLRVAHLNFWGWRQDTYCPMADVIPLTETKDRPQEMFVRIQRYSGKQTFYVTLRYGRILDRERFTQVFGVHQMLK
UniProt Q04725: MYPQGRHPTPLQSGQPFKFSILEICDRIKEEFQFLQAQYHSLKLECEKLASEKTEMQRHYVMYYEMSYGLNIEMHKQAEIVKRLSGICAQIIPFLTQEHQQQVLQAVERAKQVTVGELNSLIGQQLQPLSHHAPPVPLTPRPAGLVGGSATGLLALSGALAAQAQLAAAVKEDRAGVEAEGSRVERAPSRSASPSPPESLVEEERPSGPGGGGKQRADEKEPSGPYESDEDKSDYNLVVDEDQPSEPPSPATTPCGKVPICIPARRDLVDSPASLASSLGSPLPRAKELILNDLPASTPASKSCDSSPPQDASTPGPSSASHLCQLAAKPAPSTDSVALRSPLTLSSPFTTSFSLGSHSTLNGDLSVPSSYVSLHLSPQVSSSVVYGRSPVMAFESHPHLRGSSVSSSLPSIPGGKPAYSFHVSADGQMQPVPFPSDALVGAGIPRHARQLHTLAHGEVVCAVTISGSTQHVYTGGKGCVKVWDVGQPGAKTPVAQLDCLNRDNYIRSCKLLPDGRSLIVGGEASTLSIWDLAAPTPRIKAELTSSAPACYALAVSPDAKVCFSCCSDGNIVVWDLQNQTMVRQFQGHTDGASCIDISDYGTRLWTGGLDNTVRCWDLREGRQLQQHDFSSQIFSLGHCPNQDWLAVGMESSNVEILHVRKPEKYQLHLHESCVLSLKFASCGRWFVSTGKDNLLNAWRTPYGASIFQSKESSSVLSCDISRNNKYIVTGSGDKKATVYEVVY
UniProt Q9Y4G6: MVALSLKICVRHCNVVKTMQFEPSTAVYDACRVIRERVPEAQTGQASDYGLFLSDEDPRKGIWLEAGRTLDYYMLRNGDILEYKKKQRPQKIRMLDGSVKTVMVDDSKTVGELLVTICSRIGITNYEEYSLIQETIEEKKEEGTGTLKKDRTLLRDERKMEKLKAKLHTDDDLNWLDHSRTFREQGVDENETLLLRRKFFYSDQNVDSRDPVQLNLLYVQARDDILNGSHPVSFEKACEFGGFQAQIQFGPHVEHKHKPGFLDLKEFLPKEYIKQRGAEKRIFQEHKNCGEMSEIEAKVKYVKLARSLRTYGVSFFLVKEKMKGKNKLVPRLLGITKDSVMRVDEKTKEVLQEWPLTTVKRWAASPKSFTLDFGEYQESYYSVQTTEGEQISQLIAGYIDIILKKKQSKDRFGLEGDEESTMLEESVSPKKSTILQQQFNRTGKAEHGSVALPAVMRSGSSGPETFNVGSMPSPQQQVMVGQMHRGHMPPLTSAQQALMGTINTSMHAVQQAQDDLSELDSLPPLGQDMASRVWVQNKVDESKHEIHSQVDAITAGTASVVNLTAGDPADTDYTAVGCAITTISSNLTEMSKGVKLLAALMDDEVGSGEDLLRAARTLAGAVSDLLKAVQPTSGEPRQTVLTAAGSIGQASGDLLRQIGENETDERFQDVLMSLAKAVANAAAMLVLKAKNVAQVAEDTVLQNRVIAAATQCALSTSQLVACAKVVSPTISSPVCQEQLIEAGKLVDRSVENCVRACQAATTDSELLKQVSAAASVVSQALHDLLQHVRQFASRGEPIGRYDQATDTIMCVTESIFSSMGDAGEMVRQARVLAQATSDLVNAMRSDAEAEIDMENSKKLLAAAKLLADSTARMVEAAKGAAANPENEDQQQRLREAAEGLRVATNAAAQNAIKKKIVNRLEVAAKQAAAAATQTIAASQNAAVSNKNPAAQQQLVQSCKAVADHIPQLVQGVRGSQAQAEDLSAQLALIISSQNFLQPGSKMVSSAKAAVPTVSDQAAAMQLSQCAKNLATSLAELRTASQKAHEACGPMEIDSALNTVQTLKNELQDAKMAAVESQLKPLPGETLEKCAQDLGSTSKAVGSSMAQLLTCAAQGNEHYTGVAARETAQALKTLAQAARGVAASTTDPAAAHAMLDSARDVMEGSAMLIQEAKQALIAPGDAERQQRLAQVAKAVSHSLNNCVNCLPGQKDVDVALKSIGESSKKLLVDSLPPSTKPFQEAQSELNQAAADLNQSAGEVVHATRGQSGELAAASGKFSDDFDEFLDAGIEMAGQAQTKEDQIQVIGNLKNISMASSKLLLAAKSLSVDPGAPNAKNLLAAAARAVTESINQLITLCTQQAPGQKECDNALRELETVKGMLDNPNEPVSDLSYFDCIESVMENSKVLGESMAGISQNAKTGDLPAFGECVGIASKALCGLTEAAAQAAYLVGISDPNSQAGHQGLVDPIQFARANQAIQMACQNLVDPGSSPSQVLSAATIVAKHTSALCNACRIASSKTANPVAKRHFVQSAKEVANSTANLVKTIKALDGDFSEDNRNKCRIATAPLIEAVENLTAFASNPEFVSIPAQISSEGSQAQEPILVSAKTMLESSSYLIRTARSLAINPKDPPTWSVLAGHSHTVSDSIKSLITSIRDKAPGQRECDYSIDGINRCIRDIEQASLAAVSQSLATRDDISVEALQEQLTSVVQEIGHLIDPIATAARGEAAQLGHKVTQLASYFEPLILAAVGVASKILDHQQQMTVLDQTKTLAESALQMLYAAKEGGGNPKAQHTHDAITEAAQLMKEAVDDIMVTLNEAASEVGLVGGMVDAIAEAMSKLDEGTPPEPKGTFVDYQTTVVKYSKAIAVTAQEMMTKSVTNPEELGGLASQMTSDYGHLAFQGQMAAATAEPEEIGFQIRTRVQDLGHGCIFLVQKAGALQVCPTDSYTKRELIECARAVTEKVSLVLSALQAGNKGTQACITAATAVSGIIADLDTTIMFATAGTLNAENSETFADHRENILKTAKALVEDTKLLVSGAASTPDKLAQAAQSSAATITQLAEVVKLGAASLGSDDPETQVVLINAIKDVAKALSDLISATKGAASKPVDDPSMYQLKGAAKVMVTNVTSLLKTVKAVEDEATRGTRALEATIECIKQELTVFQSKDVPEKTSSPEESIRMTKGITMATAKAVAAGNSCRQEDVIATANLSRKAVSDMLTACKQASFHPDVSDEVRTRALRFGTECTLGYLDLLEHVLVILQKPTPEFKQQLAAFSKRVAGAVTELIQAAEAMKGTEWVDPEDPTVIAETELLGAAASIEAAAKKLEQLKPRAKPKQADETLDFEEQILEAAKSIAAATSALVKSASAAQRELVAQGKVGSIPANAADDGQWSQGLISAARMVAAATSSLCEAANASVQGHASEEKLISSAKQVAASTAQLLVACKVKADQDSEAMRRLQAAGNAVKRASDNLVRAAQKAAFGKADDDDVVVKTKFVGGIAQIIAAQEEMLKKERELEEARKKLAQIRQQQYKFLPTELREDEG
UniProt P11388: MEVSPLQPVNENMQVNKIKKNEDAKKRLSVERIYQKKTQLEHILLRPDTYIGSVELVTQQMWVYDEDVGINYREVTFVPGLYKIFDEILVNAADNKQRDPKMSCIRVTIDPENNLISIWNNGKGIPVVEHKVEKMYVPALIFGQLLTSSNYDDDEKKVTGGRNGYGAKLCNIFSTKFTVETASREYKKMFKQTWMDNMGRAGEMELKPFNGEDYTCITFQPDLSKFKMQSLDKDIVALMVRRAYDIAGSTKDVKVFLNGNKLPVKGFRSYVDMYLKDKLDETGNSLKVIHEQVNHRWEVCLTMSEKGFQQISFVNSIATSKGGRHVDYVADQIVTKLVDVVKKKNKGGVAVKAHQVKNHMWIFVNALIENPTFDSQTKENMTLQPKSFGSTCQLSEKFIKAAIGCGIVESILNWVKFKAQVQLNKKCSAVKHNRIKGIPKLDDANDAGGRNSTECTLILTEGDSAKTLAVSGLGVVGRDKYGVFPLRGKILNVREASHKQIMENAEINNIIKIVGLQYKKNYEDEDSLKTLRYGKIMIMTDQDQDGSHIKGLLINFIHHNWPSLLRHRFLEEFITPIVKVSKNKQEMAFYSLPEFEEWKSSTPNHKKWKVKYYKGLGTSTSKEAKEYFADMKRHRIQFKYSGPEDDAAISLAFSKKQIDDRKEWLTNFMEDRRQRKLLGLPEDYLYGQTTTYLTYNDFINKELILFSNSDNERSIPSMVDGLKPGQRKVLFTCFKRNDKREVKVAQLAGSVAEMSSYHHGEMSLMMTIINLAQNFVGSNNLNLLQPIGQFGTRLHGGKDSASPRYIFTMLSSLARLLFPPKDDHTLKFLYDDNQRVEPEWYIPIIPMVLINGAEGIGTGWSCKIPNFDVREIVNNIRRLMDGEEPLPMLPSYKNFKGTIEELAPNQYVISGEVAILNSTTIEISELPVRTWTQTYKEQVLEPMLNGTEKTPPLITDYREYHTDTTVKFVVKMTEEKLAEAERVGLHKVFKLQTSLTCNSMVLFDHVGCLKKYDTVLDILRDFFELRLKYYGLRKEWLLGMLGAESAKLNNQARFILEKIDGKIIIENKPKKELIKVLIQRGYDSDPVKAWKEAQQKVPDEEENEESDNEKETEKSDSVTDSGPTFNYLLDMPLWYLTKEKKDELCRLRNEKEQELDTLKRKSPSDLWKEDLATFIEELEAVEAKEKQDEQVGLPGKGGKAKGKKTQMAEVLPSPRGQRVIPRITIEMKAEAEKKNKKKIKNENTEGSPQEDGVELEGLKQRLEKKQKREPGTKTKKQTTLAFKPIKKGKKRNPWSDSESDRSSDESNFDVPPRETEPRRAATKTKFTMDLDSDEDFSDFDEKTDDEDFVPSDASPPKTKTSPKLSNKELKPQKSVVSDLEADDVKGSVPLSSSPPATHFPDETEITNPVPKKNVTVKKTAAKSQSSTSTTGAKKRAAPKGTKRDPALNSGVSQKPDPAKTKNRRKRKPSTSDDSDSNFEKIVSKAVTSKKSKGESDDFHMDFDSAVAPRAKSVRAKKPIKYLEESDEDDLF
UniProt Q9HD45: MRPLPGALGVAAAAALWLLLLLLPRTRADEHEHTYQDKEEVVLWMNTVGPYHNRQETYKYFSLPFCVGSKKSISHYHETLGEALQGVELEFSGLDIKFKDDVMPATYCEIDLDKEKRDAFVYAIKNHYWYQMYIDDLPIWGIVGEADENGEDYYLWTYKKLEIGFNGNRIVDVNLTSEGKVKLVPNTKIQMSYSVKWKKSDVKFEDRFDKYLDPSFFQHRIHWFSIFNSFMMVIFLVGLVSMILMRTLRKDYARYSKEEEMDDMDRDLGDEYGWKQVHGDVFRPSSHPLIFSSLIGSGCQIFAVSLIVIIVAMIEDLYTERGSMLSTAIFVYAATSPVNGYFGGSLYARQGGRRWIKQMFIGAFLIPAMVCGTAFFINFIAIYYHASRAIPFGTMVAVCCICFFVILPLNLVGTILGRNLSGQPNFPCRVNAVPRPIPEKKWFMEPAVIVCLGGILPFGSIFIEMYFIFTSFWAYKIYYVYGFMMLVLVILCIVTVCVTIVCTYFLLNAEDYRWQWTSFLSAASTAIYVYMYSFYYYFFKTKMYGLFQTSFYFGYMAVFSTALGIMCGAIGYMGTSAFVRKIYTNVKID
UniProt Q04727: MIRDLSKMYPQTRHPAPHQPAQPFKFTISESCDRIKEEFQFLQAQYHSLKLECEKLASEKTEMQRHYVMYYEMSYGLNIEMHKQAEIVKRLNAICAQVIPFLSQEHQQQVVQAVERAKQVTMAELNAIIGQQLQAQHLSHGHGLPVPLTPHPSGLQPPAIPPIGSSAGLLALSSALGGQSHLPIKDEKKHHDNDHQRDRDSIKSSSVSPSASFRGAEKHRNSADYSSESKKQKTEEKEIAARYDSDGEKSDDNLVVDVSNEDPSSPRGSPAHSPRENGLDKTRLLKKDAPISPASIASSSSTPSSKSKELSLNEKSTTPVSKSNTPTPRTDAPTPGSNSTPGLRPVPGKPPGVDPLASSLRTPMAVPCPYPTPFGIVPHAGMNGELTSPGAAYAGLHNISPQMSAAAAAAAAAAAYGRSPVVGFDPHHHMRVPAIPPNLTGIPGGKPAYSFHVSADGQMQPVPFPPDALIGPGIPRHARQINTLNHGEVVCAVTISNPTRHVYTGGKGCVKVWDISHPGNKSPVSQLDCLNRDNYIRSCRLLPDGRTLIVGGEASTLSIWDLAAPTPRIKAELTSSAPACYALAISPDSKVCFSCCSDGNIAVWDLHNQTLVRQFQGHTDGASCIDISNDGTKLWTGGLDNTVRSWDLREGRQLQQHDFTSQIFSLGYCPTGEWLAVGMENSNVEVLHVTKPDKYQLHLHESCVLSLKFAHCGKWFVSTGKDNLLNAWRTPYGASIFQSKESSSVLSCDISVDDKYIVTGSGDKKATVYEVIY

The other results are listed elsewhere or left out. The data scatter; read single values as rough.

Compound in the first assay: ClCC(=O)N[C@H]1CCCc2ccccc12
In words: log2 mean competition ratio of IA-DTB cysteine labelling (DMSO/compound) (log2 ratio); higher = stronger cysteine engagement by compound. Particulars: 50 µM; treatment time: 4 h; cell line lysate: HEK293T. The method, then:
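IA-DTB competitive cysteine chemoproteomics in HEK293T RIPA lysate. Lysates were treated with compound 29 or 30 at 50 or 200 µM for 4 h, then IA-DTB (500 µM, 1 h), trypsin-digested, NeutrAvidin-enriched and analysed by diaPASEF. Competition ratio = intensity DMSO / intensity compound (n=4 treated, n=64 DMSO); binding: mean log2 CR ≥ 1 and p ≤ 0.05 plus QC filters. Target is the cysteine site.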
In the case of TMEM104 C455 (UniProt Q8NE00), the “log2 mean competition ratio” value is -0.149.

Turning to TK1 C3, the “log2 mean competition ratio” value was determined as 0.0832.

In the case of TMEM63B C23 (UniProt Q5T3F8), the “log2 mean competition ratio” value worked out at 0.101.

Consider TMEM186 C156 (UniProt Q96B77), for which the “log2 mean competition ratio” value was determined as 0.178.

Take TNKS1BP1 C716 (UniProt Q9C0C2): the “log2 mean competition ratio” value was 0.685.

As to TPT1 C28, the “log2 mean competition ratio” value is -0.13.

Take TJP2 C601 (UniProt Q9UDY2): the “log2 mean competition ratio” value turned out to be 0.263.

Take TRAPPC10 C162 (UniProt P48553): the “log2 mean competition ratio” value was -0.488.

Take TLE2 C261 (UniProt Q04725): the “log2 mean competition ratio” value is -0.197.

With TOR1AIP1 C496 (UniProt Q5JTV8), the “log2 mean competition ratio” value stood at 0.116.

For the target TP53BP1 C772 (UniProt Q12888), the “log2 mean competition ratio” value came out at 0.403.

Regarding TLN2 C289 (UniProt Q9Y4G6), the “log2 mean competition ratio” value was -0.402.

In the case of TNKS C190 (UniProt O95271), the “log2 mean competition ratio” value came to 0.565.

For TPP2 C28, the “log2 mean competition ratio” value is -0.0587.

For the target TNPO3 C312 (UniProt Q9Y5L0), the “log2 mean competition ratio” value was determined as 0.0334.

Turning to TOP1 C733 (UniProt P11387), the “log2 mean competition ratio” value was 0.176.

With TOP2A C170 (UniProt P11388), the “log2 mean competition ratio” value came out at 0.106.

As to TOMM34 C250 (UniProt Q15785), the “log2 mean competition ratio” value is 0.232.

Regarding TM9SF3 C428 (UniProt Q9HD45), the “log2 mean competition ratio” value is 0.327.

In the case of TLE4 C32 (UniProt Q04727), the “log2 mean competition ratio” value is -0.0218.

The assay is the same for the next values; noted with them: 200 µM; treatment time: 4 h; cell line lysate: HEK293T.
Consider TMEM104 C455 (UniProt Q8NE00), for which the “log2 mean competition ratio” value is -0.0207.

As to TK1 C3, the “log2 mean competition ratio” value is 0.18.

As to TMEM63B C23 (UniProt Q5T3F8), the “log2 mean competition ratio” value turned out to be 0.201.

As to TMEM186 C156 (UniProt Q96B77), the “log2 mean competition ratio” value was 0.316.

With TNKS1BP1 C716 (UniProt Q9C0C2), the “log2 mean competition ratio” value is 0.129.

As for TPT1 C28, the “log2 mean competition ratio” value was -0.208.

Turning to TJP2 C601 (UniProt Q9UDY2), the “log2 mean competition ratio” value was -0.0722.

As to TRAPPC10 C162 (UniProt P48553), the “log2 mean competition ratio” value worked out at 0.183.

For TLE2 C261 (UniProt Q04725), the “log2 mean competition ratio” value was determined as 0.066.

As for TOR1AIP1 C496 (UniProt Q5JTV8), the “log2 mean competition ratio” value is -0.181.

Consider TP53BP1 C772 (UniProt Q12888), for which the “log2 mean competition ratio” value came to 0.0314.

For TLN2 C289 (UniProt Q9Y4G6), the “log2 mean competition ratio” value was -0.103.

Consider TNKS C190 (UniProt O95271), for which the “log2 mean competition ratio” value was -0.288.

Consider TPP2 C28, for which the “log2 mean competition ratio” value was -0.0454.

As to TNPO3 C312 (UniProt Q9Y5L0), the “log2 mean competition ratio” value was -0.0486.

Take TOP1 C733 (UniProt P11387): the “log2 mean competition ratio” value was -0.00772.

Take TOP2A C170 (UniProt P11388): the “log2 mean competition ratio” value was -0.0178.

Take TOMM34 C250 (UniProt Q15785): the “log2 mean competition ratio” value was -0.136.

Consider TM9SF3 C428 (UniProt Q9HD45), for which the “log2 mean competition ratio” value was determined as 0.339.

As for TLE4 C32 (UniProt Q04727), the “log2 mean competition ratio” value amounted to 0.0965.
